{"sequences": {"note": "Sequences of proteins named here, by UniProt entry; tags and fusion partners are left off. A change or cut given only in a name is not applied to a line headed by its entry. A line that says so, or that is headed by a name, gives the form on record, which may keep a tag or linker.", "UBAP2L F518L/F523G (YFP-tagged) (F8W726, form named)": "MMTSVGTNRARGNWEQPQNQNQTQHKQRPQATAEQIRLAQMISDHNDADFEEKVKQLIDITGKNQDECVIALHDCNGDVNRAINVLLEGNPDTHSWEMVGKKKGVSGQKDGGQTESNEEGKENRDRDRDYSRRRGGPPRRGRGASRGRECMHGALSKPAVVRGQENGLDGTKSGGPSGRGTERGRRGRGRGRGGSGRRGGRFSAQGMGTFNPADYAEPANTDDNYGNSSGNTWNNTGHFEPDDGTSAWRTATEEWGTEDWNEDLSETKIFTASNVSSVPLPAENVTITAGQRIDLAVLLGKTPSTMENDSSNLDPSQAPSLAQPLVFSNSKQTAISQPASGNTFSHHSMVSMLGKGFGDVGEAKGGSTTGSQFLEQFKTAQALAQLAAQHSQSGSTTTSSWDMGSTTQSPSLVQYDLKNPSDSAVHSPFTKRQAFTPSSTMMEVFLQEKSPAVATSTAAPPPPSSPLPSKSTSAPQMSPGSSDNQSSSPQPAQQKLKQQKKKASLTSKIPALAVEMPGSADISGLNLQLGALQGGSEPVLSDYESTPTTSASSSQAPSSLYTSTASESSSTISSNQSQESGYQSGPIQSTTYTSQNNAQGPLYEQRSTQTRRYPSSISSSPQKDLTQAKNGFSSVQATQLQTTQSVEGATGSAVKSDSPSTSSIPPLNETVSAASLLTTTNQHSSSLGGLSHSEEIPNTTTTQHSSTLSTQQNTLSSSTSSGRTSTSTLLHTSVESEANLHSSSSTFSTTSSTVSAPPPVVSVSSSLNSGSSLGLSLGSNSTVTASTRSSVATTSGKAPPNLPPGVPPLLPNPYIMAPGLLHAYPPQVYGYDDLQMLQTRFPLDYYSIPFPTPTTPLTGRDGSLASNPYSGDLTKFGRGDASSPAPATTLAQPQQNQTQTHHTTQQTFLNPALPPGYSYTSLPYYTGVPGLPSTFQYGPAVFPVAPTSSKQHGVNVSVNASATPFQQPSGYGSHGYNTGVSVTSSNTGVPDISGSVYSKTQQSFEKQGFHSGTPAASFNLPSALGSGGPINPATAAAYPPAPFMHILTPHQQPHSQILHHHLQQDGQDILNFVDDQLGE", "UniProt Q13283": "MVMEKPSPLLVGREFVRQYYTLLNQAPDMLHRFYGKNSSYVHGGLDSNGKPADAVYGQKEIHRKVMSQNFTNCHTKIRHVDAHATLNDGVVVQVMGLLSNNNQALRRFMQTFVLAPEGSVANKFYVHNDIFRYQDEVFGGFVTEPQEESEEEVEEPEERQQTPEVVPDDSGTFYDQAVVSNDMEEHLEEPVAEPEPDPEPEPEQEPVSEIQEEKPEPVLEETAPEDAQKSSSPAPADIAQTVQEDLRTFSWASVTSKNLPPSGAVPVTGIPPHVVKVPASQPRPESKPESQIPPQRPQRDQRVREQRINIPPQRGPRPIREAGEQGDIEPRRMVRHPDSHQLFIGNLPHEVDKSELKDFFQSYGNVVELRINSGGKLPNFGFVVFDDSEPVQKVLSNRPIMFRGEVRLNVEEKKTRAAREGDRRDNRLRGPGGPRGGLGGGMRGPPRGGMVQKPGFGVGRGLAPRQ"}, "source": "paper PMC10897489", "target": "UBAP2L F518L/F523G (YFP-tagged) (human) (UniProt F8W726)", "assay": "co-IP; YFP-tagged bait from transfected HeLa cells on GFP-trap beads, 1 h at 4 °C, washes with 150 mM NaCl, 50 mM Tris pH 7.4, 0.05% NP40; western blot", "note": "Results are given in words; binding and its absence hold for the method and conditions named. Binding seen in cells or lysates may run through a third protein.", "data": [{"substance": "G3BP1 (endogenous) (from UniProt Q13283 1-466)", "values": [{"measurement": "binding", "result": "no binding"}]}]}
